Assay results from article PMC7762753.
No constants are given. Whether binding was seen depends on the method and setting. Binding seen in cells or lysates may run through a third protein. Some binding calls cover weakened binding; strength is not graded here.

Chains of the proteins cited; added tags and fusions are not shown. Residues count along the entry.
UniProt P41593, residues 464-591: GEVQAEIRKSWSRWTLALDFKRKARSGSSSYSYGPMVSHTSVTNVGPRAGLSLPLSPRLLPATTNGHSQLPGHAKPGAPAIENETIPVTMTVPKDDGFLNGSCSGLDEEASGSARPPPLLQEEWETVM
UniProt P63094: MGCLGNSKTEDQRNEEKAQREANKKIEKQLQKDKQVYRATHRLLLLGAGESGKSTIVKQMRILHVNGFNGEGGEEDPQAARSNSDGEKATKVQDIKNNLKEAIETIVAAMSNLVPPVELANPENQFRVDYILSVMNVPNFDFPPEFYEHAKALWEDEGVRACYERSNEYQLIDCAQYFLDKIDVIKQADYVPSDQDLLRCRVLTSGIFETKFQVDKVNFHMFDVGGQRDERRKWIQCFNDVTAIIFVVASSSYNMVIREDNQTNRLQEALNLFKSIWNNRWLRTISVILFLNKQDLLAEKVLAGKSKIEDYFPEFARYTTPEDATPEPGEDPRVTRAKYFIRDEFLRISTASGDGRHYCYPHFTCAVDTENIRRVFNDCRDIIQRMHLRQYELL

Key:
[1] = target: T1, full-length Kindlin-2 (expression plasmid, COS-7 cells) (UniProt Q8CIB5); experiment: co-IP; COS-7 cells co-transfected with Flag-tagged PTH1R cytoplasmic constructs and full-length Kindlin-2; extracts precipitated with Kindlin-2 antibody, blot with Flag and Kindlin-2 antibodies; IP lysis buffer pH 7.4, 0.15 M NaCl, 1% NP-40
T1 sequence: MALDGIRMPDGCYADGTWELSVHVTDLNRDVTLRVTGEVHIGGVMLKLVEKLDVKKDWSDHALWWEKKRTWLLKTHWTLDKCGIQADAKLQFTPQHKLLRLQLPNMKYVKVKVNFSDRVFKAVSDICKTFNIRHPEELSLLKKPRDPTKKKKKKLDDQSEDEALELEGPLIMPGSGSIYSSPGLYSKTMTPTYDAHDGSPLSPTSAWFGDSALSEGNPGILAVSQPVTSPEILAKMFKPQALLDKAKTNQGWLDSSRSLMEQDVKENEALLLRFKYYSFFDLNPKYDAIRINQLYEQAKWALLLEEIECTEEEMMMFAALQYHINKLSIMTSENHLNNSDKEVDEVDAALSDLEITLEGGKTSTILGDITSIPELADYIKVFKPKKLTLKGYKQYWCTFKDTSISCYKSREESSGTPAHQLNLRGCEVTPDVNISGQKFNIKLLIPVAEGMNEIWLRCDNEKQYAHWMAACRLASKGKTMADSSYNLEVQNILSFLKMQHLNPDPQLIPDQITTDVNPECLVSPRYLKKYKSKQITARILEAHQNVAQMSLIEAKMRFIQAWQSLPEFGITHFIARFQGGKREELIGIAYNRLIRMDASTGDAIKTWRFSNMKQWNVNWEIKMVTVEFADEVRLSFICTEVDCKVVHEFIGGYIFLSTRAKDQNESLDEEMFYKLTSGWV

[2] = target: T2, Kindlin-2 (endogenous, MC-4 osteoblastic cells) (mouse (endogenous in MC-4)) (UniProt Q8CIB5); experiment: co-IP; endogenous proteins; whole-cell extracts of MC-4 cells incubated with Kindlin-2 antibody or IgG, Protein A/G magnetic beads, western blotting; IP lysis buffer pH 7.4, 0.025 M Tris, 0.15 M NaCl, 0.001 M EDTA, 1% NP-40, 5% glycerol
T2 sequence: T1 sequence

[3] = target: Flag-tagged 128-aa C-terminal cytoplasmic domain of PTH1R (mouse) (UniProt P41593); experiment: co-IP; COS-7 cells co-transfected with Flag-PTH1R (128 aa) and full-length Kindlin-2; extracts precipitated with Flag antibody, blot for Kindlin-2; IP lysis buffer pH 7.4, 0.15 M NaCl, 1% NP-40

**Q.** For “Flag-tagged 128-aa C-terminal cytoplasmic domain of PTH1R (from UniProt P41593 464-591) (domain or fragment)”, which binding [1] is on record?
**A.** The binding was “binds”.

**Q.** For “Gsα, the stimulatory subunit of G protein (endogenous, MC-4 osteoblastic cells) (from UniProt P63094 1-394)”, which binding [2] is on record?
**A.** Its binding is “binds”.

B1: full-length Kindlin-2 (expression plasmid, COS-7 cells) (protein, UniProt Q8CIB5 1-680)
chain: T1 sequence
**Q.** With B1 as the molecule, how does the binding [3] read?
**A.** The binding was “binds”.
